Measured values from paper doi:10.1101/2024.05.31.596839.
These are yes or no findings as the source states them, for the method shown. Sequences can lack the tags named with a protein.

Assays:
Experiment in all cases: ReLo
Conditions in all cases: remark: other sources report otherwise
[1] = target: T1, Argonaute 3 (Drosophila), Q7PLK0
T1 chain: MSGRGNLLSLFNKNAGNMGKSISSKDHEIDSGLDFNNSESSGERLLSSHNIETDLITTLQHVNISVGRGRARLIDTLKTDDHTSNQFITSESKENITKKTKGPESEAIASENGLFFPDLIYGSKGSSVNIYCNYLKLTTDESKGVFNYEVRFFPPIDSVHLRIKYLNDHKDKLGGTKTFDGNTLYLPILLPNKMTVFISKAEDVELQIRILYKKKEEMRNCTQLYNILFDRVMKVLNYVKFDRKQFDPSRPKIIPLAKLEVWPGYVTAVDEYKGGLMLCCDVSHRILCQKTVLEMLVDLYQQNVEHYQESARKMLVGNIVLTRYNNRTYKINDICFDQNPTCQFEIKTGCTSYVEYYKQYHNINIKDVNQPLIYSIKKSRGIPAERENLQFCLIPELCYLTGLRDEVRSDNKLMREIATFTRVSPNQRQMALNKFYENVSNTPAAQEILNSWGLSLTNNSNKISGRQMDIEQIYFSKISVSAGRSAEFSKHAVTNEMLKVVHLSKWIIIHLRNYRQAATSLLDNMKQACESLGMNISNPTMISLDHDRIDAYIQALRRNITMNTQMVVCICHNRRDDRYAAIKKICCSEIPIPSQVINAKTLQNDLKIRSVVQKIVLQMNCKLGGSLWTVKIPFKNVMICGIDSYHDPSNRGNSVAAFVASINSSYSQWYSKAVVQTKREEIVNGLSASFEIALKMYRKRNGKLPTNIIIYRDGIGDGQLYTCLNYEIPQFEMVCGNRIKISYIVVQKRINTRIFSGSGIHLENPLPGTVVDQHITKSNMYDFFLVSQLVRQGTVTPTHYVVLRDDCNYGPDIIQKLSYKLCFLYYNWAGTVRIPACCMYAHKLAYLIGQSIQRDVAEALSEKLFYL

[2] = target: T2, Piwi (Drosophila), Q9VKM1
T2 chain: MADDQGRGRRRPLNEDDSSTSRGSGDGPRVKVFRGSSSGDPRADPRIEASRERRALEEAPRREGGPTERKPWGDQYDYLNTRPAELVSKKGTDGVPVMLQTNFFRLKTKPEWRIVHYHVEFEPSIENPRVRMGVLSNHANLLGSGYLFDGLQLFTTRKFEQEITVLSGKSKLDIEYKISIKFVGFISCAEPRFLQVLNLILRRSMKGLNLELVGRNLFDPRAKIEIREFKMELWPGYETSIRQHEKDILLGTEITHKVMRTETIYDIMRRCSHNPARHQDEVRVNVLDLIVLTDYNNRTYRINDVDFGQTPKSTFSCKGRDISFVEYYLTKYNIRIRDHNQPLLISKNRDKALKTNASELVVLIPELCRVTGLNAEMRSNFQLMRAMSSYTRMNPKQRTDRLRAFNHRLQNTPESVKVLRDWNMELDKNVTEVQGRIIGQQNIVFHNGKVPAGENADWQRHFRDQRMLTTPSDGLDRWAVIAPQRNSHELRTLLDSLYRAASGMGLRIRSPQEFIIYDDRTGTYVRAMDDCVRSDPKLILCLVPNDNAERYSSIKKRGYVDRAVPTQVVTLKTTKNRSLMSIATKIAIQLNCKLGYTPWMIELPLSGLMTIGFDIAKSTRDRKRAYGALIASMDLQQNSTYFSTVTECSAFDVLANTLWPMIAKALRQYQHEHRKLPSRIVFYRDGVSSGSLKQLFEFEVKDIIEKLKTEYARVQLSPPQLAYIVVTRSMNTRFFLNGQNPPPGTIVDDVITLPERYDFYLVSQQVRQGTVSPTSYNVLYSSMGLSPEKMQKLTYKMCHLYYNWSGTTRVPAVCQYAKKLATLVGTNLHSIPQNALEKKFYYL

[3] = target: T3, SoYb (Drosophila), Q9VL52
T3 chain: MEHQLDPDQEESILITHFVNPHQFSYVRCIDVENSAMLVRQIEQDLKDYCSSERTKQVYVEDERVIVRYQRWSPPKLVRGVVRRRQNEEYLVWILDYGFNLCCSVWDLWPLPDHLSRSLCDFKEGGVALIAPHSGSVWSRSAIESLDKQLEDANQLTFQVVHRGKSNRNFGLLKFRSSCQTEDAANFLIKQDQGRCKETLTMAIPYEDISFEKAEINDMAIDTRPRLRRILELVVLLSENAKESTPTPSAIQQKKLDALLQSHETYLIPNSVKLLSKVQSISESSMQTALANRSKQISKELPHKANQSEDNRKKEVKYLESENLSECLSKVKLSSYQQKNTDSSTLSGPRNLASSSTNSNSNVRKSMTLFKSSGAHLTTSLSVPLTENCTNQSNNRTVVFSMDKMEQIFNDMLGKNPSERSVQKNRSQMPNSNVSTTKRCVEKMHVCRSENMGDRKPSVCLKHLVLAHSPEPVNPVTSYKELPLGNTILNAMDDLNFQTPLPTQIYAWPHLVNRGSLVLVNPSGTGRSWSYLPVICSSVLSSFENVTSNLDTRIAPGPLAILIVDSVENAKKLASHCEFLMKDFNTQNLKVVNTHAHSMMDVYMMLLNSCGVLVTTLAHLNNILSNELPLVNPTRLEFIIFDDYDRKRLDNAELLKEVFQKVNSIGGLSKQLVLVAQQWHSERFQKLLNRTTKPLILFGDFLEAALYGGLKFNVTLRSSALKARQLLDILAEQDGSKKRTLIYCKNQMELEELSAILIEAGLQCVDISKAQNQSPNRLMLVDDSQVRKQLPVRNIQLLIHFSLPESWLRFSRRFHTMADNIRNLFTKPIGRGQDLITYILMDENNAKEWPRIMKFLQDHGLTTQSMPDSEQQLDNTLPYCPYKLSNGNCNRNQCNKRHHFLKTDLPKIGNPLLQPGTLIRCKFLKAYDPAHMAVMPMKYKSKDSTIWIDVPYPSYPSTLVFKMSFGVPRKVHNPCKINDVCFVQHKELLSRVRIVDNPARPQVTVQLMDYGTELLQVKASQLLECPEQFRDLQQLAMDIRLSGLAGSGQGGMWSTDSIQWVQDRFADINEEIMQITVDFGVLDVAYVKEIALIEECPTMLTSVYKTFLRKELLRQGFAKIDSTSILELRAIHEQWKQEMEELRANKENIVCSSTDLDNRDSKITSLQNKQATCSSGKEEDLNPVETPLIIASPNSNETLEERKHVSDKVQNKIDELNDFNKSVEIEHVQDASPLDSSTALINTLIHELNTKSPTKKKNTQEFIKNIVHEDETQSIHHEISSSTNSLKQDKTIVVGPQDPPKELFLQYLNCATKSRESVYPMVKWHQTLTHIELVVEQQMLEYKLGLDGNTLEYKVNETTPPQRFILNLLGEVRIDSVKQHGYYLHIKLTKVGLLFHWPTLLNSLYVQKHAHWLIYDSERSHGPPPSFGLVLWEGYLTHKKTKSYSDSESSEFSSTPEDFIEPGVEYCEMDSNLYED

Measured: binding

B1: Armitage, Q6J5K9 1-1188 (protein)
chain: MFTYVSKFFTNPDRNREDILESLDRENSFLDQKLMEEKMDQQLKANPNEINGVLSNKIAELTHGLSEMDVSKESSCTARKGVITSLDGDRGVIDKDVLFETKVAEDIILDLHVGCVVEYLTFTTGEAMRVVKVKSILEHSWEDTSQKEIEKAVDNLKNEKPTFFNTETRSVLGLISQRLASSIDVETEYGQLTVELDNIEMNFIPTNGDRVRLECNIQLDDGFVDKQGEILEVTKLFPTRIQEGEKCIVERVYVHMVVLGPETYILKTDLPTGTDLHLGDIVLADLIECQYSKFTRRAIKITPLEKNFGATKLTQQSSMGSSGSGKAVTVTGVNRFITAELWQKESVSLKLTNNLNRTLRLESITVCNDSESQLSVVSPLESKEISSGSEITVTFEIHTQFLGEAIEKYVLNFDLLKVRRVFTVIVCKTKEEVAEAEKRMIAAEALMAPGRNSQERSRFYANQVWCNKVDVIPGQQIVTKRRFVALRLGCFEVPKELRQICLTSERRQEMIKAIEQHYSFLTEPLSIKTYMHRFRLLLHLEEIECFVNFRNYDRDRAHFLRDGEFLTLQIENLAERRPSLVIGDTLRVINPWSDPDSQTTKSYEGIIHKVLFDRILLKFHSSFQEKYNGEDYRLEFYFSRYSFRKQHHAISKIVGVMGEDFLFPSKVTKRENPQLDVYMKDDDMYLYDSKLEWYNQSLNSIQKRAVFNILRGEAENIPYVLFGPPGSGKTMTLIETLLQLVRNLPGARILVGTPSNSSADLVTKRLIDSKALLQGDFIRLVSYNQVEKDLIPPEIMSYCATSDVGAVGSCEDKMMVTESGLKLRCQAKFIGTHRITISTCTTLGNFLQLGFPAGHFTHVLFDEAGQCTEPETMVPIVMLTKKRSQVVLSGDPRQLQSIVTSRIASKMGFSISFLERLLERSPYRKDLQRFPESSGYNPLVLTKLLYNYRALPSIMSIYSRLFYDDELIPVLSEKDSRESRLLSKLRCVFESEKDIPQAHGTFFYGIIGENRQNNDSPSWFNPQEVREVFLMTIALYRANVTADQIGIITPYQKQVKMLRSMFIGTDVVMPKIGSVEEFQGQERDIILISTVRSSEEILRMDARFSLGFVRCSKRLNVAVSRARAMMIIFGNPHLLAVDECWRQLILFCVKNNAYFGCDLPQMVINQKDEVPVCLETFVPSLNTTDDLN
no binding: all assays above
